From patent US20230024461A1, “METHODS FOR DUAL DNA/PROTEIN TAGGING OF OPEN CHROMATIN” (Beth Israel Deaconess Medical Center, Inc., priority 2019, published 2023)

Tested on: HEK293T nuclei
Test: iDAPT-MS quantitative mass spectrometry
Parameters: species or system human
Conditions: FDR threshold of 5%

B1: TP5: Tn5 transposase-GSGAGA linker-APEX2 peroxidase fusion, C-terminal FLAG; amino acid SEQ ID NO: 31 (protein)
chain: MITSALHRAADWAKSVFSSAALGDPRRTARLVNVAAQLAKYSGKSITISSEGSKAMQEGAYRFIRNPNVSAEAIRKAGAMQTVKLAQEFPELLAIEDTTSLSYRHQVAEELGKLGSIQDKSRGWWVHSVLLLEATTFRTVGLLHQEWWMRPDDPADADEKESGKWLAAAATSRLRMGSMMSNVIAVCDREADIHAYLQDKLAHNERFVVRSKHPRKDVESGLYLYDHLKNQPELGGYQISIPQKGVVDKRGKRKNRPARKASLSLRSGRITLKQGNITLNAVLAEEINPPKGETPLKWLLLTSEPVESLAQALRVIDIYTHRWRIEEFHKAWKTGAGAERQRMEEPDNLERMVSILSFVAVRLLQLRESFTPPQALRAQGLLKEAEHVESQSAETVLTPDECQLLGYLDKGKRKRKEKAGSLQWAYMAIARLGGFMDSKRTGIASWGALWEGWEALQSKLDGFLAAKDLMAQGIKIGSGAGAGKSYPTVSADYQDAVEKAKKKLRGFIAEKRCAPLMLRLAFHSAGTFDKGTKTGGPFGTIKHPAELAHSANNGLDIAVRLLEPLKAEFPILSYADFYQLAGVVAVEVTGGPKVPFHPGREDKPEPPPEGRLPDPTKGSDHLRDVFGKAMGLTDQDIVALSGGHTIGAAHKERSGFEGPWTSNPLIFDNSYFTELLSGEKEGLLQLPSDKALLSDPVFRPLVDKYAADEDAFFADYAEAHQKLSELGFADADYKDDDDK
modifications: C-terminal FLAG
significant proteins enriched versus APEX2 alone: 1,395 proteins
